Test results published in the supplement of paper PMC10849652.
This is one part of the list.

By UniProt entry, the sequences of proteins in these tests, tags left out. Where a name states a change or a piece, a line headed by the entry shows the natural chain unless it says otherwise.
UniProt Q8TF74: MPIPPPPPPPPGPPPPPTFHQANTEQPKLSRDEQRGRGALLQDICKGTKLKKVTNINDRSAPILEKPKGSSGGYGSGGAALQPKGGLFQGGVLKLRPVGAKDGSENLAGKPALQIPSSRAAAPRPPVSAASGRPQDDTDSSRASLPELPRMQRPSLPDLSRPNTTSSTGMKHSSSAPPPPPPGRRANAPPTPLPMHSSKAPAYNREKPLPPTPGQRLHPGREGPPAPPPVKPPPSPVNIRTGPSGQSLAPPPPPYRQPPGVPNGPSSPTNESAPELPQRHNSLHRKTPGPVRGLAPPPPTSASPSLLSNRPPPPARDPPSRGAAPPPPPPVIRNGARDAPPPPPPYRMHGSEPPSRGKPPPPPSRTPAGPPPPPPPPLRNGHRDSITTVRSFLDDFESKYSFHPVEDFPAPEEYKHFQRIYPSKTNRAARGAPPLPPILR
UniProt Q9H4A3: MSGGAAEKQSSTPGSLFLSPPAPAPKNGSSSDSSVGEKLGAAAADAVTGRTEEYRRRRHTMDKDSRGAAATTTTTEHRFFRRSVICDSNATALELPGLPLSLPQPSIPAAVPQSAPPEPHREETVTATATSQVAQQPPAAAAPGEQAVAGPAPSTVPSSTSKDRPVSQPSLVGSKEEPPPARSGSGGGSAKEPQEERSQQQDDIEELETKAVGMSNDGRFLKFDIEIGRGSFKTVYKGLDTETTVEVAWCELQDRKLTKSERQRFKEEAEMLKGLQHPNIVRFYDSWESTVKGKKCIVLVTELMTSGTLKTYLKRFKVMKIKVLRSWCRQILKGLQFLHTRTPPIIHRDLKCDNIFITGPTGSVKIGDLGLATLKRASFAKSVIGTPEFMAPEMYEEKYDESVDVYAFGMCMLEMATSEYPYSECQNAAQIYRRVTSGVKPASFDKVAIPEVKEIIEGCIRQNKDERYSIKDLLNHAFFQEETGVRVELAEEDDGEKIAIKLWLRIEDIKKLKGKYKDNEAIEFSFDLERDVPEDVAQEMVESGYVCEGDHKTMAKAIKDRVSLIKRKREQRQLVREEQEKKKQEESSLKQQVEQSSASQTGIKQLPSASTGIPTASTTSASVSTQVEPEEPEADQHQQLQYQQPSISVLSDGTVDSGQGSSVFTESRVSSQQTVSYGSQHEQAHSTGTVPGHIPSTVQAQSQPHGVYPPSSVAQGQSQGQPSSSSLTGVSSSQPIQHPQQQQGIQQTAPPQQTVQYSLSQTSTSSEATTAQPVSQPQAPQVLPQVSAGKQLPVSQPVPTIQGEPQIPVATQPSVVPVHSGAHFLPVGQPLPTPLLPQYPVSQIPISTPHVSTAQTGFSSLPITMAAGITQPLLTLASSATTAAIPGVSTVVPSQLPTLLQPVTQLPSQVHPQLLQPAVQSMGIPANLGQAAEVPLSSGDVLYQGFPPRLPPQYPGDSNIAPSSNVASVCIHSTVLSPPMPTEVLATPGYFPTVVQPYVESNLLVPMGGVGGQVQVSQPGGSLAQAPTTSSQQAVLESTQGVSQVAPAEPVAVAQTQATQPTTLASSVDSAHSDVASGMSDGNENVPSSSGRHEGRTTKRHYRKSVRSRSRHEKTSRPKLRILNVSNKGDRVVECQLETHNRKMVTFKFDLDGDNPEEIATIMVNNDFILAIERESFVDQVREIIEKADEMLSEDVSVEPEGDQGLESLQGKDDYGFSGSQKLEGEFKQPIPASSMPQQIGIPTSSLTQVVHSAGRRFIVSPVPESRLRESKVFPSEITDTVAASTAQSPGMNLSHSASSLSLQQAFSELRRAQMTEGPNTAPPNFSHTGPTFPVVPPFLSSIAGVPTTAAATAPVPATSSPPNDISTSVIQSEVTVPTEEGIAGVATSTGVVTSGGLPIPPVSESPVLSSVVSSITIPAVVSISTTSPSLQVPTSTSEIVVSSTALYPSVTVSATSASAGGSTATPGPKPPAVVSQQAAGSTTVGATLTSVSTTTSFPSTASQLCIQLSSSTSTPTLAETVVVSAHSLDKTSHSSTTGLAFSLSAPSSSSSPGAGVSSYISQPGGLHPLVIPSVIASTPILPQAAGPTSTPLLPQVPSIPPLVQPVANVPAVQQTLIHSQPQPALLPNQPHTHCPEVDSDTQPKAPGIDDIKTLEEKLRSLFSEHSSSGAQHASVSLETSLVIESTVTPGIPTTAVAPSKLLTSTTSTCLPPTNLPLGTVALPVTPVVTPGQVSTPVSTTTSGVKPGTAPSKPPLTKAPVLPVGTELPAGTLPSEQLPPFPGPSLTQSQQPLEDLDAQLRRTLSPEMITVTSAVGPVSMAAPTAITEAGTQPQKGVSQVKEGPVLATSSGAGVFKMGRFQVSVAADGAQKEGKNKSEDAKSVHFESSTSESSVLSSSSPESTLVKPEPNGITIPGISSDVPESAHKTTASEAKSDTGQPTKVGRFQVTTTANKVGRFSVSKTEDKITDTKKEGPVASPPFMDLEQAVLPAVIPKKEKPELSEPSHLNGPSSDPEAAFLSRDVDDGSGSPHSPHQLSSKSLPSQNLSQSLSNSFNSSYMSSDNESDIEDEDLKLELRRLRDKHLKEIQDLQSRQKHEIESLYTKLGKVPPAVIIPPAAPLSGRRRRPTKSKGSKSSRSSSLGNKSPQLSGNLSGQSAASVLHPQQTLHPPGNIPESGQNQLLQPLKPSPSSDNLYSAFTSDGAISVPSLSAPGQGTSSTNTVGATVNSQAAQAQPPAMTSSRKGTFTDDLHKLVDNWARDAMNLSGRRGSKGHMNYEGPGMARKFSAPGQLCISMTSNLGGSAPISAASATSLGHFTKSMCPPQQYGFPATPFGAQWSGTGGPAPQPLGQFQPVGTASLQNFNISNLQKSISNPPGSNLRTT
UniProt Q8NEZ2: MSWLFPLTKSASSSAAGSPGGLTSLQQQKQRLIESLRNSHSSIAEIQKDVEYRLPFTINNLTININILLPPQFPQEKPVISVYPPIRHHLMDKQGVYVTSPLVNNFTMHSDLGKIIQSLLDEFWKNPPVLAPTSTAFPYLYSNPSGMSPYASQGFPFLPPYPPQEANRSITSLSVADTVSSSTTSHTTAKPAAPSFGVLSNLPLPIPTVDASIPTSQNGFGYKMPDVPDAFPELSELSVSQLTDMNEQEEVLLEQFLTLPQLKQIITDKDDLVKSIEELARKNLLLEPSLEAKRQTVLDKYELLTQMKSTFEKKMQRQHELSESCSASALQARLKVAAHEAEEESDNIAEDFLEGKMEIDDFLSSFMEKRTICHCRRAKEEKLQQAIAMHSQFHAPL
UniProt Q8NI36: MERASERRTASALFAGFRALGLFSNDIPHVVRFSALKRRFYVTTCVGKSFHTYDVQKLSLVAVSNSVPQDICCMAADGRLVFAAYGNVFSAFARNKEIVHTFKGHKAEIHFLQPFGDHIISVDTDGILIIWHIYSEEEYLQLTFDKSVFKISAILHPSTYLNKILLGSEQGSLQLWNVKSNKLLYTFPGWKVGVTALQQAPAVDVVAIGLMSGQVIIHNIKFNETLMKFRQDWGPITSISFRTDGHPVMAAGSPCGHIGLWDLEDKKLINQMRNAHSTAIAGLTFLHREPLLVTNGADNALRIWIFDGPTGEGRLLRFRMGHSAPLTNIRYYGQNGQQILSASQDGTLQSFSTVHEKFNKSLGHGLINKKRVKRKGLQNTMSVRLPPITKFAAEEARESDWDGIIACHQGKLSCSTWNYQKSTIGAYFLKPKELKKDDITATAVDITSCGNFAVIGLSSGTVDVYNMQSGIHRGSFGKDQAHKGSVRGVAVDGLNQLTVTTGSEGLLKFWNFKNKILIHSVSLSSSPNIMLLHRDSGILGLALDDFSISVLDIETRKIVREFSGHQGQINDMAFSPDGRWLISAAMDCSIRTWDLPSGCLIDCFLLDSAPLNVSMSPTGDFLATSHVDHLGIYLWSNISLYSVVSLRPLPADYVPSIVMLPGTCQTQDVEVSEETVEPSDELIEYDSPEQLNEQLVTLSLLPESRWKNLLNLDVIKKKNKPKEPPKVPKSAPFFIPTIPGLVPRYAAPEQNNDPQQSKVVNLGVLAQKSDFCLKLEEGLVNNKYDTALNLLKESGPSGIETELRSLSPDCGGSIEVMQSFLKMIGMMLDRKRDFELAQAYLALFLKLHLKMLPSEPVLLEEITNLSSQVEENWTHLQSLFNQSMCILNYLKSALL
UniProt Q9Y4P8: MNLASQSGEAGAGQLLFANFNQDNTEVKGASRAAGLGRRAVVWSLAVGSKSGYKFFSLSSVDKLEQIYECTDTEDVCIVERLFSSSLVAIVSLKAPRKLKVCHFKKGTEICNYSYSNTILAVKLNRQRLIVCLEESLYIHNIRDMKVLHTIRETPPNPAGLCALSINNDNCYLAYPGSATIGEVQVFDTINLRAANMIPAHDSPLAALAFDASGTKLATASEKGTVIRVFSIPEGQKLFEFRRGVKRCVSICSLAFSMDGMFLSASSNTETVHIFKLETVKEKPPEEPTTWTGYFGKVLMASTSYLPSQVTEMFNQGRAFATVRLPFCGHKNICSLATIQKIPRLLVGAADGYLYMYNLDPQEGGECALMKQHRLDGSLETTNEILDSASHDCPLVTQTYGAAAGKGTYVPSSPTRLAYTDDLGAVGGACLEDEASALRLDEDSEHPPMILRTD
UniProt Q86VN1: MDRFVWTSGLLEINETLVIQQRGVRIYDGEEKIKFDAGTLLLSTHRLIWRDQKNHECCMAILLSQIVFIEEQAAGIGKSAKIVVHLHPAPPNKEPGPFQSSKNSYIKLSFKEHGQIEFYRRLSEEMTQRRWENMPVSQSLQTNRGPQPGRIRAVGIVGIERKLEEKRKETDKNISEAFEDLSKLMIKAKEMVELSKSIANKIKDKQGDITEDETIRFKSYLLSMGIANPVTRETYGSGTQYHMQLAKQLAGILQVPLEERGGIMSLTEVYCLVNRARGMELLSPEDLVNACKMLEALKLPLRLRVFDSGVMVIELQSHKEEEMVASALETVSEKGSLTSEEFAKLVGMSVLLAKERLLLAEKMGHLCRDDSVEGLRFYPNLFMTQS
UniProt Q6PJI9: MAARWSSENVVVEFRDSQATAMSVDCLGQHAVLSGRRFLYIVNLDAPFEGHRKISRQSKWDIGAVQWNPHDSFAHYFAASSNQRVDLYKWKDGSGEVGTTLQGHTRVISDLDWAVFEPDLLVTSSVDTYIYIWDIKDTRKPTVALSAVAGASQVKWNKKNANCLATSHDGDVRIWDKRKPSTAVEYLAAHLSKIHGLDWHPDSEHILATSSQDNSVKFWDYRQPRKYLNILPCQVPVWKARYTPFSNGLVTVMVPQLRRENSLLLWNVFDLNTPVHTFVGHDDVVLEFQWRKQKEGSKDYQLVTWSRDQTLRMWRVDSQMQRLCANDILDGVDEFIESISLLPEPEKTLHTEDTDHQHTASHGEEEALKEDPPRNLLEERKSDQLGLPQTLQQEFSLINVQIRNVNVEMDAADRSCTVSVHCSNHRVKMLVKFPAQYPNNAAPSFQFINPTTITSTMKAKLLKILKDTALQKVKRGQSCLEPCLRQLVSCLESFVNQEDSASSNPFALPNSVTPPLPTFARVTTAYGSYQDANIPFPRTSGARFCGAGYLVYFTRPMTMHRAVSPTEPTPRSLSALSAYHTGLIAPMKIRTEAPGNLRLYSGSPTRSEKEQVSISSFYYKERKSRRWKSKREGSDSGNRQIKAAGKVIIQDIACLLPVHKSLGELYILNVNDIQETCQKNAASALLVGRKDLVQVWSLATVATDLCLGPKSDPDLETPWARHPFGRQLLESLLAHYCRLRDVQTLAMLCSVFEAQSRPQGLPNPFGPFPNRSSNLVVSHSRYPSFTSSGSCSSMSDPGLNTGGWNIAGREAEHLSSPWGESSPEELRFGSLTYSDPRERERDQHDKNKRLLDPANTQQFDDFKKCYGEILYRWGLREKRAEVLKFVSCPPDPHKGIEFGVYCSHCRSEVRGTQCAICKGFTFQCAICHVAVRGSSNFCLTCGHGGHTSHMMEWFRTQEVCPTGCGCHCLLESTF
UniProt O15213: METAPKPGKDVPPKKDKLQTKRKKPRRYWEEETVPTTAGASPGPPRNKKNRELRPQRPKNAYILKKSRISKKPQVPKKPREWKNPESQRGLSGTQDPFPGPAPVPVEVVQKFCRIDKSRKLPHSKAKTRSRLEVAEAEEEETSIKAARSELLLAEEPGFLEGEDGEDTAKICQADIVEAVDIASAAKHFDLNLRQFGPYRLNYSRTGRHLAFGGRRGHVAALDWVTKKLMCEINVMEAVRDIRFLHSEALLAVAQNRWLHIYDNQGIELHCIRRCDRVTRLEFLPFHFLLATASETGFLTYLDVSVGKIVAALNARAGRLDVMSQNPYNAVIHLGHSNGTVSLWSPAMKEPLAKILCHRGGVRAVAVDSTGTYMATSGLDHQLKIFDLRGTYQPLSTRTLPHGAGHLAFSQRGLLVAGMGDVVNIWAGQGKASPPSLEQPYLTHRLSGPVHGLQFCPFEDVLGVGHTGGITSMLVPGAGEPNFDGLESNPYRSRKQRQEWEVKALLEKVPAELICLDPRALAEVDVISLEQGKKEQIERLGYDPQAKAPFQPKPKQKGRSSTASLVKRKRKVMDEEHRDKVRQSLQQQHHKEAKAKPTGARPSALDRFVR

Tests used:
Assay in all cases: log2 fold change, soluble protein after heating vs DMSO (PISA); higher = thermal stabilisation; K562 cells, 10 uM, 30 min; active = over 0.2 and 3.5 SD of the protein, either way, in both replicates (recomputed)
[1] = compound: COC1=CC=C(C=C1)CN2C=CC3=C2C=C(C=C3)C(=O)NO
How it was run: (§1)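 Soluble protein was defined as the supernatant after 21,000xg for 90 min. It came from K562 cells at 2×10^6 cells/mL given 10 μM compound for 30 min, heated in aliquots for 3 min across 48°C-58°C, pooled, and extracted in PBS with 0.5% NP-40 at 4°C, and was quantified by TMTpro 16plex LC-MS/MS with equalised channel sums. Thermal stability against control samples, from duplicates, is reported as log2 fold change.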

filanesib = compound: CON(C)C(=O)N1N=C(c2cc(F)ccc2F)S[C@@]1(CCCN)c1ccccc1 [filanesib]
How it was run: as §1

zotarolimus = compound: CO[C@H]1C[C@@H]2CC[C@@H](C)[C@@](O)(O2)C(=O)C(=O)N2CCCC[C@H]2C(=O)O[C@H]([C@H](C)C[C@@H]2CC[C@H](n3cnnn3)[C@H](OC)C2)CC(=O)[C@H](C)/C=C(\C)[C@@H](O)[C@@H](OC)C(=O)[C@H](C)C[C@H](C)/C=C/C=C/C=C/1C [zotarolimus]
How it was run: as §1

idasanutlin = compound: COc1cc(C(=O)O)ccc1NC(=O)[C@@H]1N[C@@H](CC(C)(C)C)[C@](C#N)(c2ccc(Cl)cc2F)[C@H]1c1cccc(Cl)c1F [idasanutlin]
How it was run: as §1

alisertib = compound: COc1cc(Nc2ncc3c(n2)-c2ccc(Cl)cc2C(c2c(F)cccc2OC)=NC3)ccc1C(=O)O [alisertib]
How it was run: as §1

[2] = compound: COc1cc2nc(-c3cc(F)ccc3O)nc(N[C@@H]3CNC[C@H]3C(C)(C)O)c2cc1OC
How it was run: as §1

gefitinib = compound: COc1cc2ncnc(Nc3ccc(F)c(Cl)c3)c2cc1OCCCN1CCOCC1 [gefitinib]
How it was run: as §1

[3] = compound: COc1cccc2cc(-c3nc([C@H]4CC[C@H](C(=O)O)CC4)n4ncnc(N)c34)[nH]c12
How it was run: as §1

lapatinib = compound: CS(=O)(=O)CCNCc1ccc(-c2ccc3ncnc(Nc4ccc(OCc5cccc(F)c5)c(Cl)c4)c3c2)o1 [lapatinib]
How it was run: as §1

pictilisib = compound: CS(=O)(=O)N1CCN(Cc2cc3nc(-c4cccc5[nH]ncc45)nc(N4CCOCC4)c3s2)CC1 [pictilisib]
How it was run: as §1

Measured: log2 fold change

VWDE (UniProt Q8N2E2)
inactive: [1] -0.006 | filanesib 0.1 | zotarolimus 0.052 | idasanutlin 0.036 | alisertib -0.028 | [2] -0.008 | gefitinib 0.033 | [3] -0.024 | lapatinib 0.093 | pictilisib -0.014

WASHC2C, A0A096LPC5
inactive: [1] -0.072 | filanesib 0.057 | zotarolimus -0.062 | idasanutlin 0.146 | alisertib -0.042 | [2] 0.305 | gefitinib 0.018 | [3] 0.098 | lapatinib -0.141 | pictilisib 0.048

WIPF2 (UniProt Q8TF74)
inactive: [1] 0.037 | filanesib -0.023 | zotarolimus -0.05 | idasanutlin 0.055 | alisertib -0.007 | [2] 0.053 | gefitinib 0.029 | [3] 0.005 | lapatinib 0.04 | pictilisib 0.012

VPS29 isoform 2 (UniProt Q9UBQ0)
inactive: [1] 0 | filanesib -0.057 | zotarolimus -0.007 | idasanutlin -0.01 | alisertib -0.047 | [2] -0.02 | gefitinib -0.008 | [3] 0.057 | lapatinib -0.008 | pictilisib -0.081

WNK1 isoform 7 (UniProt Q9H4A3)
inactive: [1] -0.034 | filanesib -0.003 | zotarolimus -0.006 | idasanutlin -0.026 | alisertib -0.026 | [2] 0.082 | gefitinib 0 | [3] 0.032 | lapatinib -0.002 | pictilisib 0

WDR44 (UniProt Q5JSH3)
inactive: [1] -0.001 | filanesib 0.008 | zotarolimus -0.022 | idasanutlin -0.019 | alisertib -0.023 | [2] 0.02 | gefitinib 0.006 | [3] 0.064 | lapatinib -0.033 | pictilisib 0.043

Quoted from the listing (2 entries):
WNK1 isoform 7 (UniProt Q9H4A3)
inactive: [1] -0.034 | filanesib -0.003 | zotarolimus -0.006 | idasanutlin -0.026 | alisertib -0.026 | [2] 0.082 | gefitinib 0 | [3] 0.032 | lapatinib -0.002 | pictilisib 0

WDR44 (UniProt Q5JSH3)
inactive: [1] -0.001 | filanesib 0.008 | zotarolimus -0.022 | idasanutlin -0.019 | alisertib -0.023 | [2] 0.02 | gefitinib 0.006 | [3] 0.064 | lapatinib -0.033 | pictilisib 0.043

Following part

VPS26A (UniProt O75436)
inactive: [1] 0.013 | filanesib -0.072 | zotarolimus 0.011 | idasanutlin -0.149 | alisertib -0.066 | [2] -0.01 | gefitinib -0.045 | [3] 0.044 | lapatinib 0.03 | pictilisib -0.057

WIPI1 (UniProt Q5MNZ9)
inactive: [1] -0.031 | filanesib -0.054 | zotarolimus -0.086 | idasanutlin -0.096 | alisertib 0.028 | [2] 0.006 | gefitinib 0.174 | [3] 0.002 | lapatinib -0.063 | pictilisib 0.01

VPS37A (UniProt Q8NEZ2)
inactive: [1] -0.046 | filanesib -0.011 | zotarolimus 0.107 | idasanutlin 0.002 | alisertib -0.054 | [2] 0.001 | gefitinib 0.05 | [3] 0.024 | lapatinib -0.035 | pictilisib 0.058

VPS50 (UniProt Q96JG6)
inactive: [1] 0.023 | filanesib -0.021 | zotarolimus 0.028 | idasanutlin -0.157 | alisertib 0.019 | [2] 0.012 | gefitinib 0.007 | [3] -0.027 | lapatinib -0.006 | pictilisib -0.003

WDR62 isoform 4 (UniProt O43379)
inactive: [1] -0.036 | filanesib 0.016 | zotarolimus 0.028 | idasanutlin 0.02 | alisertib -0.024 | [2] -0.026 | gefitinib 0.049 | [3] 0.046 | lapatinib 0.054 | pictilisib 0.015

WARS2 (UniProt Q9UGM6)
inactive: [1] -0.072 | filanesib -0.089 | zotarolimus -0.034 | idasanutlin 0.014 | alisertib -0.025 | [2] 0.062 | gefitinib -0.035 | [3] 0 | lapatinib -0.127 | pictilisib 0.037

WDCP (UniProt Q9H6R7)
inactive: [1] -0.028 | filanesib -0.029 | zotarolimus 0.094 | idasanutlin -0.049 | alisertib -0.074 | [2] 0.072 | gefitinib -0.061 | [3] -0.049 | lapatinib -0.037 | pictilisib 0.126

VMP1 (UniProt Q96GC9)
inactive: [1] -0.041 | filanesib -0.075 | zotarolimus 0.02 | idasanutlin -0.078 | alisertib -0.15 | [2] -0.081 | gefitinib -0.005 | [3] 0.065 | lapatinib 0.022 | pictilisib 0.002

WASH2P (UniProt Q6VEQ5)
inactive: [1] 0.007 | filanesib -0.067 | zotarolimus -0.029 | idasanutlin -0.055 | alisertib -0.027 | [2] 0.067 | gefitinib 0.001 | [3] -0.036 | lapatinib 0.016 | pictilisib 0.053

WDR5 (UniProt P61964)
inactive: [1] -0.004 | filanesib 0.199 | zotarolimus -0.067 | idasanutlin 0.126 | alisertib -0.069 | [2] -0.018 | gefitinib -0.063 | [3] -0.108 | lapatinib 0.003 | pictilisib -0.036

WDR36 (UniProt Q8NI36)
inactive: [1] -0.032 | filanesib 0.293 | zotarolimus 0.008 | idasanutlin 0.134 | alisertib -0.075 | [2] 0.157 | gefitinib -0.036 | [3] -0.086 | lapatinib 0.025 | pictilisib -0.028

WRNIP1 (UniProt Q96S55)
inactive: [1] 0.01 | filanesib -0.137 | zotarolimus -0.002 | idasanutlin -0.056 | alisertib 0.078 | [2] 0.007 | gefitinib -0.1 | [3] 0.086 | lapatinib -0.02 | pictilisib 0

WIPI2 (UniProt Q9Y4P8)
inactive: [1] -0.073 | filanesib -0.07 | zotarolimus -0.009 | idasanutlin -0.081 | alisertib -0.067 | [2] -0.159 | gefitinib 0.004 | [3] 0.059 | lapatinib -0.006 | pictilisib 0.029

WDR20 isoform 7 (UniProt Q8TBZ3)
inactive: [1] -0.051 | filanesib 0.074 | zotarolimus -0.004 | idasanutlin 0.048 | alisertib 0.123 | [2] -0.065 | gefitinib -0.008 | [3] -0.154 | lapatinib 0.011 | pictilisib 0.067

VPS36 (UniProt Q86VN1)
inactive: [1] 0.093 | filanesib -0.09 | zotarolimus -0.007 | idasanutlin -0.037 | alisertib 0.013 | [2] 0.009 | gefitinib 0.042 | [3] 0.022 | lapatinib -0.012 | pictilisib -0.053

WDR59 (UniProt Q6PJI9)
inactive: [1] -0.092 | filanesib 0.013 | zotarolimus -0.15 | idasanutlin 0.015 | alisertib -0.207 | [2] 0.081 | gefitinib 0.026 | [3] 0.064 | lapatinib -0.031 | pictilisib 0.056

VTI1B (UniProt Q9UEU0)
inactive: [1] -0.089 | filanesib -0.027 | zotarolimus -0.063 | idasanutlin -0.026 | alisertib 0.046 | [2] 0 | gefitinib -0.023 | [3] 0.137 | lapatinib 0.002 | pictilisib 0.061

WDR46 (UniProt O15213)
inactive: [1] -0.129 | filanesib 0.425 | zotarolimus 0.075 | idasanutlin 0.156 | alisertib -0.162 | [2] 0.037 | gefitinib -0.036 | [3] -0.018 | lapatinib -0.006 | pictilisib -0.052

WDR11 (UniProt Q9BZH6)
inactive: [1] -0.069 | filanesib 0.027 | zotarolimus -0.058 | idasanutlin -0.124 | alisertib -0.062 | [2] 0.104 | gefitinib -0.016 | [3] 0.094 | lapatinib -0.094 | pictilisib 0.094

WIPF3 (UniProt A6NGB9)
inactive: [1] 0.015 | filanesib 0.009 | zotarolimus -0.042 | idasanutlin 0.022 | alisertib 0.075 | [2] -0.025 | gefitinib -0.018 | [3] 0.055 | lapatinib -0.036 | pictilisib -0.193

WIZ isoform 3 (UniProt O95785)
inactive: [1] 0.036 | filanesib -0.029 | zotarolimus 0.134 | idasanutlin -0.126 | alisertib -0.023 | [2] 0.11 | gefitinib 0.008 | [3] -0.001 | lapatinib 0.055 | pictilisib 0.069
